## Results of single-concentration screens

The filed quantity is “Percent Effect” (%). The controls that fix the scale are not given in the record; negative values are as filed. The compounds are a random part of those screened. Two or more numbers in one place are separate tests of the same structure; such repeats can differ widely. A dash means the value is not listed here; it may have been measured.

A: 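Cell assay of Leishmania donovani living inside macrophages; the read-out is not stated. Concentration: 30 µM. The record gives no direction; compounds that gave an IC50 in retests scored well above the rest, so higher reads as stronger inhibition. Size under these conditions: about 69,000 compounds, about 1,000 of them at 50% or above in at least one test.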
B: 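Assay of Toxoplasma gondii numbers, read through their beta-galactosidase reporter with a colour substrate. Compounds at 10 µM. The record gives no direction; the compounds picked for IC50 retests had high values, so higher reads as fewer parasites. Size under these conditions: about 67,000 compounds, about 260 of them at 50% or above in at least one test.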

| # | structure | A | B |
|---|---|---|---|
| 1 | `O=C(O)C(F)(F)F.[H][C@@]12CCN(CCc3ccccc3)[C@]1([H])CC[C@@H](C(=O)NC1CCC1)O2` | 38.74 | 10.92 |
| 2 | `COC(C)C(=O)Nc1cc(C(=O)N2CCSCC2)ccc1C` (stereo not given) | 16.93 | -21.79 |
| 3 | `Cn1cc(-c2nc(CNCCn3cccn3)cs2)cn1` | 13.36 | -2.932 |
| 4 | `O=C(NCc1csc(Br)c1)c1cnccn1` | 19.66 | 2.17 |
| 5 | `[H][C@@]12C[C@@H](Oc3ccccc3)C[C@]1([H])CN(Cc1cnc(C)cn1)C2` | 19.04 | 19.46 |
| 6 | `N#Cc1cccc(S(=O)(=O)CCN2CCOC2=O)c1` | 10.04 | -1.256 |
| 7 | `Cn1c(=O)c2sccc2n(Cc2ccccc2)c1=O` | 18.96 | -6.126 |
| 8 | `O=C(CC(SC1CCCCC1)C(=O)O)c1ccc(Cl)cc1` (stereo not given) | 24.48 | -13.4 |
| 9 | `CN(C)CC1(O)CCN(C(=O)c2cnc(-c3ccccn3)nc2)C1` (stereo not given) | 42.4 | 0.9513 |
| 10 | `CCOC(=O)CCNC(=O)N1CCCC(CNC(=O)c2cccs2)C1` (stereo not given) | 27.59 | 2.683 |
| 11 | `O=C(O)C(F)(F)F.O=C(O)C(F)(F)F.c1csc(CN2CCC3(CC2)CCN(CC2CC2)CC3)n1` | 17.51 | -6.515 |
| 12 | `CCc1noc(-c2cccc(OCC(=O)NC(C)C)c2)n1` | 16.33 | 12.3 |
| 13 | `CC(=O)N1CC(=O)N(c2ccccc2)CC12CCN(Cc1nccs1)C2.O=C(O)C(F)(F)F` (stereo not given) | -14.14 | -1.282 |
| 14 | `Cc1nn(C)cc1S(=O)(=O)N[C@@H]1CCC[C@@H](N2CCCC2)[C@@H]1O` | 6.081 | 12.52 |
| 15 | `CC(=O)N1CCN(c2ccnc3c(F)cc(Br)cc23)CC1` | -5.977 | 2.5 |
| 16 | `Cc1cc(-c2cnc(N(C)C)nc2C2CCCCN2C(=O)C2CC2)on1` (stereo not given) | 24.88 | -3.893 |
| 17 | `C[S+]([O-])c1cccc(NC(=O)N[C@H](CCO)c2ccccc2)c1` (stereo not given in full) | -24.92 | 7.771 |
| 18 | `CCc1oc(C(=O)N[C@@H]2c3ccccc3C[C@@H]2O)cc1CN1CCCC1` | 19.82 | 4.56 |
| 19 | `CN1C(=O)COc2cc(NC(=O)CCc3nc4cccnc4[nH]3)ccc21` | 33.08 | 16.04 |
| 20 | `Fc1ccc(-c2noc([C@@H]3Cc4nc[nH]c4CN3)n2)cc1` | -4.064 | -5.894 |
| 21 | `CCCNC(=O)c1cc(Br)c2c(c1)OCCO2` | 31.85 | - |
| 22 | `CNS(=O)(=O)c1cccc(C(C)NCc2ccc(C)o2)c1` (stereo not given) | 18.24 | -1.447 |
| 23 | `CN(C)CCN1C(=O)CCC12CCCN(C(=O)C1CC=CC1)CC2.O=C(O)C(F)(F)F` (stereo not given) | 6.806 | 1.072 |
| 24 | `c1ccc2c(c1)CCN(c1nc(-c3ccncc3)nc3c1CCNC3)C2` | 27.99 | 11.74 |
| 25 | `CCCn1ncc(C(=O)N2CCC(N3CCCCC3)CC2)c1C` | 36.95 | 0.1127 |
| 26 | `Cc1cn2c(n1)CCC(NS(=O)(=O)c1cc(C)sc1C)C2` (stereo not given) | -23.91 | -2.84 |
| 27 | `CN1CCCN(C(=O)NCCOc2ccc3c(c2)OCO3)CC1` | 20.03 | -25.72 |
| 28 | `CC(C)S(=O)(=O)C(C)C(=O)NCc1cccc(N2CCCCC2=O)c1` (stereo not given) | -20.94 | -6.601 |
| 29 | `CNC(=O)[C@@H]1C[C@H](N)CN1S(=O)(=O)c1cc(Cl)c(Cl)s1` | 30.5 | -5.014 |
| 30 | `Cc1cccc(-c2nc(CNC3CCc4ncnn4C3)no2)c1` (stereo not given) | 26.53 | 0.4577 |
| 31 | `CNC(=O)c1cc2c(nc1NCC1CC1)CCN(S(C)(=O)=O)CC2.O=C(O)C(F)(F)F` | 10.15 | -20.71 |
| 32 | `COc1ccccc1OCC(=O)NCC(O)(c1cccs1)C1CC1` (stereo not given) | 22.88 and 20.56 | -26.17 |
| 33 | `COc1ccc2nnc(CCCC(=O)NCCc3ccccn3)n2n1` | -7.14 | 17.39 |
| 34 | `CC(C#N)NS(=O)(=O)c1ccc2c(c1)N(C)CCC2` (stereo not given) | 35.34 | 1.77 |
| 35 | `CCn1cc(CN2CCCC(COc3ccc(F)cc3)C2)cn1` (stereo not given) | 38.53 | 2.693 |
| 36 | `Cc1c(CNC(=O)C2CCCCCN2C)oc2ccccc12` (stereo not given) | 35.4 | 7.757 |
| 37 | `CNC(=O)NC(=O)CSC(C)c1ccccc1F` (stereo not given) | 8.989 | - |
| 38 | `COc1cccc2ccc(N3CCC(O)(c4ccc(C)cn4)CC3)nc12` | -53.59 | 2.482 |
| 39 | `CCc1ncc(C(=O)N2CCC(Nc3ccc(C)nn3)CC2)s1` | 21.16 | -5.14 |
| 40 | `CCC(CC)C(CNC(=O)Nc1cnn(CCOC)c1)N(C)C` (stereo not given) | 15.78 | 15.88 |
| 41 | `O=C(c1ccccn1)N1Cc2ccccc2OC2(CCOCC2)C1` | 18.44 and 18.16 | 8.906 |
| 42 | `Cc1ncsc1CN(C)C(=O)CC1CCOc2ccccc21` (stereo not given) | -36.56 | 2.801 |
| 43 | `CC(O)CN1CCN(C(=O)c2cc(Cl)cc3cccnc23)CC1` (stereo not given) | 30.53 | -5.164 |
| 44 | `O=C(c1ccco1)N1CCOCC2(C1)CN(c1ccccc1)C(=O)CO2` (stereo not given) | -4.881 | 1.816 |
| 45 | `CC(NCc1cc2cc(F)ccc2o1)c1nnc2n1CCCC2` (stereo not given) | 18.38 | -0.5196 |
| 46 | `COCCn1ccnc1C1CCN(C(=O)CSc2nnc(C)o2)CC1` | -13.22 | 8.586 |
| 47 | `O=C(c1ccc2c(c1)[nH]c(=O)n2C1CCCC1)N1CCC1` | 17.05 | 0.05671 |
| 48 | `CCC(=O)NC(CC(C)C)c1cccs1` (stereo not given) | 31.66 | 2.559 |
| 49 | `CN1CC(=O)N(c2ccccc2)CC12CCN(S(C)(=O)=O)C2.O=C(O)C(F)(F)F` (stereo not given) | -14.4 | -0.2661 |
| 50 | `COCCOc1ccnc(-c2noc([C@@H]3CCCN3C)n2)c1` | 14.53 | -8.28 |
| 51 | `c1ccc(-c2nc(CN3CCn4c(nnc4C4CC4)C3)cs2)cc1` | -2.728 | 3.816 |
| 52 | `C[C@@H]1CN(Cc2ccc(-c3ccncc3)cc2F)CC(C(N)=O)O1` (stereo not given in full) | -0.2391 | -1.693 |
| 53 | `NC(=O)c1cc(C2CCCN(CCCOc3ccc(F)cc3)C2)n[nH]1` (stereo not given) | -6.481 | 23.08 |
| 54 | `Nc1nccc(-c2cccc3ccnn23)n1` | 13.94 | -4.711 |
| 55 | `CC1CCN(CCNC(=O)C2CCN(C(=O)C(C)(C)C)CC2)CC1` | 39.77 | -0.1264 |
| 56 | `CCC(CNS(=O)(=O)c1c[nH]cn1)Oc1ccccc1F` (stereo not given) | -0.1327 | -6.586 |
| 57 | `O=C1NCCCCC1Sc1nnc(N2CCCC2)n1C1CC1` (stereo not given) | 12.76 | -4.425 |
| 58 | `CN(Cc1ccccn1)C(C(=O)O)c1ccc2c(c1)OCO2` (stereo not given) | 12.78 | -10.21 |
| 59 | `O=C(N[C@@H]1CCN(C(=O)c2ccc(F)cc2Cl)C[C@H]1O)c1ccccn1` | -5.637 | -3.254 |
| 60 | `Cc1ccc(CN2CCN(C(=O)c3ccc(CO)cc3)C(C)C2=O)cc1` (stereo not given) | 4.187 | -0.4693 |
| 61 | `CCc1ncc(-c2nccn2-c2cccc(CC(=O)O)c2)cn1` | -4.046 | -9.479 |

The last 7 entries again:

{"structure": "CC1CCN(CCNC(=O)C2CCN(C(=O)C(C)(C)C)CC2)CC1", "A": 39.77, "B": -0.1264}
{"structure": "CCC(CNS(=O)(=O)c1c[nH]cn1)Oc1ccccc1F", "stereo": "stereo not given", "A": -0.1327, "B": -6.586}
{"structure": "O=C1NCCCCC1Sc1nnc(N2CCCC2)n1C1CC1", "stereo": "stereo not given", "A": 12.76, "B": -4.425}
{"structure": "CN(Cc1ccccn1)C(C(=O)O)c1ccc2c(c1)OCO2", "stereo": "stereo not given", "A": 12.78, "B": -10.21}
{"structure": "O=C(N[C@@H]1CCN(C(=O)c2ccc(F)cc2Cl)C[C@H]1O)c1ccccn1", "A": -5.637, "B": -3.254}
{"structure": "Cc1ccc(CN2CCN(C(=O)c3ccc(CO)cc3)C(C)C2=O)cc1", "stereo": "stereo not given", "A": 4.187, "B": -0.4693}
{"structure": "CCc1ncc(-c2nccn2-c2cccc(CC(=O)O)c2)cn1", "A": -4.046, "B": -9.479}

The values are deposited in ChEMBL (CHEMBL3988442, “University of Dundee, Small-Polar-MMV Screening Library” (2021)).